# Laboratory results published in paper PMC7819943, “Rice protein-binding microarrays: a tool to detect cis-acting elements near promoter regions in rice”.
# Chains of the proteins cited; added tags and fusions are not shown.
# UniProt Q0JBA9, entry or part of it: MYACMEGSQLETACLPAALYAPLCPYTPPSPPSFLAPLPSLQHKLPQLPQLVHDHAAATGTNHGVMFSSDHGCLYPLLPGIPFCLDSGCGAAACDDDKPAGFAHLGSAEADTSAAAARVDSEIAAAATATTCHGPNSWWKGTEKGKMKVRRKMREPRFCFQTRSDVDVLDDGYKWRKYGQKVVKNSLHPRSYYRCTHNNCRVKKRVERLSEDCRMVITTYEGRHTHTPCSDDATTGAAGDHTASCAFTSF
# The list shows a part of the results.
# Biological target: OsWRKY34 (Oryza sativa, UniProt Q0JBA9 1-250)
# Assay: protein-binding microarray (RPBM); PBS, 2% BSA, 51.3 ng/ul salmon testes DNA, 50 uM zinc acetate, 200 nM TF, 25 C, 1 h; high values mean tight binding
# Details: protein: recombinant; tags: N-terminal polyhistidine and DsRed monomer fusion (pET32a); label: CyDye5-dUTP incorporated in the synthesized complementary strand; 3' TTTTT single-stranded linker to array surface; dsDNA, one strand shown
# Summary of the method: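 Transcription factors were made in E. coli BL21-CodonPlus as N-terminal fusions to a polyhistidine tag and DsRed, then purified on Ni–NTA. After primer extension with Cy5-dUTP and blocking with 2% BSA, a custom Agilent array was exposed for 1 h at 25 °C to 200 nM protein in PBS, 2% BSA, salmon testes DNA and 50 µM zinc acetate. Washed arrays were scanned on an Axon 4000B, and the binding signal is per-feature fluorescence intensity in arbitrary units.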
row,Sequence,binding signal
1,AATTGCCACACCCTTTTTAAAAAACCTGATATGTGTCCATCGGAGTCACCTAGTGCAG,8460 fluorescence intensity (a.u.)
2,GCTAGAGAGAGATCATGTCGGTGGCGGCGGAGGGGAAGGACGGAGTCACCTAGTGCAG,10700 fluorescence intensity (a.u.)
3,CGTTCATTTTGTTTCAATTGACCATATAAGACTTTTTCTCCGGAGTCACCTAGTGCAG,8160 fluorescence intensity (a.u.)
4,TCTATCTTCTCTTCCTTCCTTTTTTGCGTGGAAGGCATGTCGGAGTCACCTAGTGCAG,10400 fluorescence intensity (a.u.)
5,ACTCTGGATGATTTTTTTTATCTCGTACTCTCATCTCGGACGGAGTCACCTAGTGCAG,12300 fluorescence intensity (a.u.)
6,AAAATGGTTGGCTACTATGGGCTGGGATCGGTTTCTTTGCCGGAGTCACCTAGTGCAG,8920 fluorescence intensity (a.u.)
7,CCTTCCCATTCGACCGCCGCCCGCCCTGTCCGCGCCTGACCGGAGTCACCTAGTGCAG,11300 fluorescence intensity (a.u.)
8,CTTCTGTTTCTTGGCCACATCGAGTAAAAATGTCCTCGTCCGGAGTCACCTAGTGCAG,11900 fluorescence intensity (a.u.)
9,GCCTTACTCACGGTGATTAGTTTAACCCCATCCTTTGGTTCGGAGTCACCTAGTGCAG,8580 fluorescence intensity (a.u.)
10,CGCCACTATGTGGATGTGTTCTTGCTGTGTTATCTAGATACGGAGTCACCTAGTGCAG,9020 fluorescence intensity (a.u.)
11,GGATCTTTCATCGTAGTTTATTTTTCAGCCTTTGTTTTTACGGAGTCACCTAGTGCAG,12800 fluorescence intensity (a.u.)
12,CTTATGCTGCTTCTGTTGGTTTTGAAAGATTTCGAATTCACGGAGTCACCTAGTGCAG,9570 fluorescence intensity (a.u.)
13,GTGTTTTGCAAGGTTGTTTCTTTACCTTATCTATATACATCGGAGTCACCTAGTGCAG,9790 fluorescence intensity (a.u.)
14,GCGCCTCTACACCGCGCTCGTCATCCTTCCGCCGCCGCTCCGGAGTCACCTAGTGCAG,11300 fluorescence intensity (a.u.)
15,GGTGCAGGAGGAGGAGGGGAAAGAGCGGCGGGGAGAAGTTCGGAGTCACCTAGTGCAG,10700 fluorescence intensity (a.u.)
16,TCCGTCTTTTTTAGTAACTTCCATTTTTTATTGGAATGGTCGGAGTCACCTAGTGCAG,8340 fluorescence intensity (a.u.)
17,CATGGCGATCTACTAGGCAAATCCATCGTCCCTTGTGAATCGGAGTCACCTAGTGCAG,8230 fluorescence intensity (a.u.)
18,GAATTTTGATACATGTTCCACCATTCATCTTTTTTATTTTCGGAGTCACCTAGTGCAG,9790 fluorescence intensity (a.u.)
19,GCAGCTCATACACATAGCTAGCTCAGCTGAGACACACACACGGAGTCACCTAGTGCAG,8440 fluorescence intensity (a.u.)
20,GTGATTTGGTGATTGTATGGGGACTACTATTTAACGCACTCGGAGTCACCTAGTGCAG,10800 fluorescence intensity (a.u.)
21,AGAGCAGAGAAGTGCGATTAGGCATGTGGTCCAAAATCTTCGGAGTCACCTAGTGCAG,12900 fluorescence intensity (a.u.)
22,AACCATGTCACTGCTCTAAACTCGCCTTTTGTTGACTTGGCGGAGTCACCTAGTGCAG,10600 fluorescence intensity (a.u.)
23,CACCGCTGGCCGCCACTCCATTCCTCAGCTTTGCTTCCGGCGGAGTCACCTAGTGCAG,10000 fluorescence intensity (a.u.)

# Shown tab-delimited: part of the list above
row	Sequence	binding signal
14	GCGCCTCTACACCGCGCTCGTCATCCTTCCGCCGCCGCTCCGGAGTCACCTAGTGCAG	11300 fluorescence intensity (a.u.)
15	GGTGCAGGAGGAGGAGGGGAAAGAGCGGCGGGGAGAAGTTCGGAGTCACCTAGTGCAG	10700 fluorescence intensity (a.u.)
